In PubChem BioAssay AID342 (DTP/NCI, 2004):
The list does not hold the whole screen: it gathers tests that were run many times, whatever their T/C, doses with no T/C, and many T/C values between a quarter and a half above the control. Other doses and runs of a compound stand elsewhere. T/C: endpoint of the treated group in % of that of the vehicle group. Schedules are NCI's codes, taken here to give the interval after Q, in days (D) or hours (H), and the number of doses after X. Some entries were tested several times; the values are given in rising order. Some schedules carry Z or #; the key to these is not given. Some T/C values carry the count of animals alive at the toxicity check (mostly the fifth day); without a count, all were alive then. Some doses have a count of surviving animals in place of a T/C: the source holds a T/C of zero for them, seemingly a mark for toxic or unscored doses. Survivors were counted at the toxicity check, usually on the fifth day, unless a day is given; later deaths do not show. Some structures stand for samples that the source files as different forms (salt, stereo form or complex); doses refer to the form tested.

Tested on: Swiss mice, Sarcoma 180 sc, mean tumor weight T/C
Experiment: NCI In Vivo Anticancer Drug Screen. Data for tumor model Sarcoma 180 (subcutaneous) in Swiss mice
Conditions: T/C endpoint: mean tumor weight, higher T/C = larger tumour; for T/C: evaluated on day 8
In short: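 Readout is the ratio of treated-group measurement to vehicle-control measurement (T/C), based on survival or tumor size in mice carrying transplanted tumors.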

[1] = dose: 125.0 mg/kg/injection, schedule: Q01DX007 (ip), vehicle: carboxymethylcellulose (CMC)
[2] = dose: 250.0 mg/kg/injection, schedule: Q01DX007 (ip), vehicle: carboxymethylcellulose (CMC)
[3] = dose: 500.0 mg/kg/injection, schedule: Q01DX007 (ip), vehicle: carboxymethylcellulose (CMC)
[4] = dose: 62.5 mg/kg/injection, schedule: Q01DX007 (ip), vehicle: carboxymethylcellulose (CMC)
[5] = dose: 4.5 mg/kg/injection, schedule: Q#A X014 (ip), vehicle: saline
[6] = dose: 250.0 mg/kg/injection, schedule: Q01DX007 (ip), vehicle: saline

CN(C)Cc1c[nH]c2ccccc12
survivor count [1]: 2 of 6
survivor count [2]: 0 of 6
survivor count [3]: 0 of 6

O=C1c2ccccc2C(=O)N1CCF
survivor count (dose: 16.0 mg/kg/injection, schedule: Q01DX007 (ip), vehicle: carboxymethylcellulose (CMC)): 2 of 6
survivor count (dose: 32.0 mg/kg/injection, schedule: Q01DX007 (ip), vehicle: carboxymethylcellulose (CMC)): 0 of 6
survivor count [4]: 0 of 6
survivor count [1]: 0 of 6
survivor count [2]: 0 of 6
survivor count [3]: 0 of 6

CCCCNc1ncnc2c1cnn2C
T/C (dose: 2.0 mg/kg/injection, schedule: Q01DX007 (ip), vehicle: carboxymethylcellulose (CMC)): 135 % of control [5 of 6 alive]
survivor count [4]: 1 of 6
survivor count [1]: 3 of 6

O=C(CBr)c1ccc(Br)cc1
survivor count (dose: 30.0 mg/kg/injection, schedule: Q01DX007 (ip), vehicle: other): 2 of 6

CCN(CC)P(=O)(N1CC1)N1CC1
survivor count (dose: 3.0 mg/kg/injection, schedule: Q#A X014 (ip), vehicle: methylcellulose (MC)): 3 of 6
survivor count (dose: 7.0 mg/kg/injection, schedule: Q01DX007 (ip), vehicle: saline): 3 of 6
survivor count (dose: 11.0 mg/kg/injection, schedule: Q01DX007 (ip), vehicle: saline): 2 of 6
survivor count (dose: 17.0 mg/kg/injection, schedule: Q01DX007 (ip), vehicle: saline): 2 of 6

Nc1nc2n[nH]nc2c(=O)[nH]1
survivor count (dose: 126.0 mg/kg/injection, schedule: Q01DX007 (ip), vehicle: other): 6 of 10
survivor count (dose: 800.0 mg/kg/injection, schedule: Q01DX007 (ip), vehicle: other): 0 of 6

CO[C@H](C(=O)[C@@H](O)[C@@H](C)O)[C@@H]1Cc2cc3cc(OC4CC(OC5CC(O)C(O)C(C)O5)C(O)C(C)O4)c(C)c(O)c3c(O)c2C(=O)[C@H]1OC1CC(OC2CC(OC3CC(C)(O)C(O)C(C)O3)C(O)C(C)O2)C(O)C(C)O1 (stereo partly specified)
survivor count (dose: 0.25 mg/kg/injection, schedule: Q01DX007 (ip), vehicle: water): 3 of 6
survivor count (dose: 0.5 mg/kg/injection, schedule: Q01DX007 (ip), vehicle: water): 1 of 6
survivor count (dose: 0.6 mg/kg/injection, schedule: Q01DX007 (ip), vehicle: water): 1 of 6
survivor count (dose: 3.0 mg/kg/injection, schedule: Q01DX007 (ip), vehicle: water): 1 of 6
survivor count (dose: 4.0 mg/kg/injection, schedule: Q01DX007 (ip), vehicle: water): 3 of 6
survivor count (dose: 5.0 mg/kg/injection, schedule: Q01DX007 (ip), vehicle: water): 2 of 6

CN1C=c2c3c(ccc2=C2C=CC4C=C5OCOC5=CC4=C21)OCO3 (stereo unspecified)
T/C [5]: 50, 59, 63 [4 of 6 alive], 81 % of control
survivor count [5]: 4 of 7
T/C (dose: 6.5 mg/kg/injection, schedule: Q#A X014 (ip), vehicle: saline): 43 [5 of 6 alive], 59, 83, 102 % of control [5 of 6 alive]
survivor count (dose: 10.0 mg/kg/injection, schedule: Q#A X014 (ip), vehicle: saline): 1 of 6
survivor count (dose: 40.0 mg/kg/injection, schedule: Q#A X014 (oral), vehicle: saline): 4 of 7

CCCCCCCCCCCCCCCCCC1=NC(C)CC(C)(C)O1 (stereo unspecified)
survivor count (dose: 281.5 mg/kg/injection, schedule: Q#A X014 (ip), vehicle: saline): 2 of 6

COc1cc2c3c(c4cc(OC)c(OC)cc4c2cc1OC)CN1CCC[C@H]1C3
survivor count (dose: 20.0 mg/kg/injection, schedule: Q01DX007 (ip), vehicle: water): 2 of 6

S=P(N1CCCCCC1)(N1CC1)N1CC1
survivor count (dose: 101.0 mg/kg/injection, schedule: Q01DX007 (ip), vehicle: carboxymethylcellulose (CMC)): 3 of 6

O=C1N(Cl)C(=O)C(c2ccccc2)(c2ccc(F)cc2)N1Cl (stereo unspecified)
T/C (dose: 27.5 mg/kg/injection, schedule: Q#A X014 (ip), vehicle: methylcellulose (MC)): 132 % of control [5 of 6 alive]

O=C(Nc1ccc([N+](=O)[O-])cc1)Nc1ccc([N+](=O)[O-])cc1 (tested in a mixture with another compound)
survivor count (dose: 83.5 mg/kg/injection, schedule: Q#A X014 (ip), vehicle: methylcellulose (MC)): 2 of 6
survivor count (dose: 125.0 mg/kg/injection, schedule: Q#A X014 (ip), vehicle: methylcellulose (MC)): 3 of 6
survivor count (dose: 250.0 mg/kg/injection, schedule: Q#A X014 (ip), vehicle: methylcellulose (MC)): 2 of 6

CCOC(=O)Nc1ccc2c(c1)/C(=N\NC(N)=S)c1ccccc1-2
survivor count (dose: 110.0 mg/kg/injection, schedule: Q01DX007 (ip), vehicle: carboxymethylcellulose (CMC)): 2 of 6
survivor count (dose: 165.0 mg/kg/injection, schedule: Q01DX007 (ip), vehicle: carboxymethylcellulose (CMC)): 2 of 6
survivor count [2]: 1 of 6
survivor count (dose: 375.0 mg/kg/injection, schedule: Q01DX007 (ip), vehicle: carboxymethylcellulose (CMC)): 0 of 6

NC(=O)Oc1ccccc1
survivor count (dose: 500.0 mg/kg/injection, schedule: Q01DX007 (ip), vehicle: other): 4 of 7
survivor count (dose: 750.0 mg/kg/injection, schedule: Q01DX007 (ip), vehicle: other): 0 of 6 and 1 of 7
survivor count (dose: 1119.0 mg/kg/injection, schedule: Q01DX007 (ip), vehicle: other): 1 of 6
survivor count (dose: 1679.0 mg/kg/injection, schedule: Q01DX007 (ip), vehicle: other): 0 of 6

CCOC(=O)CCCc1ccc(N/N=N/c2nc[nH]c2C(N)=O)cc1
survivor count (dose: 187.0 mg/kg/injection, schedule: Q01DX007 (ip), vehicle: carboxymethylcellulose (CMC)): 2 of 6
survivor count [2]: 0 of 6

O=C(O)O.[Cd]
survivor count (dose: 10.0 mg/kg/injection, schedule: Q01DX007 (ip), vehicle: carboxymethylcellulose (CMC)): 2 of 6
survivor count (dose: 40.0 mg/kg/injection, schedule: Q01DX007 (ip), vehicle: carboxymethylcellulose (CMC)): 2 of 6
survivor count [1]: 1 of 6
survivor count [3]: 2 of 6

Nc1ccc(C(=O)NCCCC(=O)O)cc1
survivor count (dose: 250.0 mg/kg/injection, schedule: Q01DX007 (ip), vehicle: water): 0 of 60

CCCC(=O)OCC1OC(n2cnc3c(=S)nc(N)[nH]c32)C(OC(=O)CCC)C1OC(=O)CCC (stereo unspecified)
T/C (dose: 14.0 mg/kg/injection, schedule: Q01DX007 (ip), vehicle: carboxymethylcellulose (CMC)): 21, 33, 43, 57 % of control
survivor count (dose: 43.0 mg/kg/injection, schedule: Q01DX007 (ip), vehicle: carboxymethylcellulose (CMC)): 5 of 8
survivor count (dose: 47.0 mg/kg/injection, schedule: Q01DX007 (ip), vehicle: carboxymethylcellulose (CMC)): 1 of 6

CS(=O)(=O)OCC#CCOS(C)(=O)=O
survivor count (dose: 80.0 mg/kg/injection, schedule: Q01DX007 (ip), vehicle: saline): 1 of 6

C[C@@H]1C[C@H]2[C@@H]3CCC4=CC(=O)C=C[C@]4(C)[C@@]3(F)[C@@H](O)C[C@]2(C)[C@@]1(O)C(=O)CO
survivor count (dose: 36.0 mg/kg/injection, schedule: Q01DX007 (sc), vehicle: steroid suspending solution): 1 of 6
survivor count (dose: 54.0 mg/kg/injection, schedule: Q01DX007 (sc), vehicle: steroid suspending solution): 1 of 6

NC(Cc1ccc(N(CCCl)CCCl)cc1)C(=O)O (stereo unspecified)
survivor count (dose: 6.5 mg/kg/injection, schedule: Q01DX007 (ip), vehicle: carboxymethylcellulose (CMC)): 6 of 10

CC(=O)Nc1c(Cl)c(Cl)c2c(c1Cl)Cc1cc(F)ccc1-2
survivor count [6]: 2 of 6
survivor count (dose: 375.0 mg/kg/injection, schedule: Q#A X014 (ip), vehicle: saline): 3 of 6

CC(=O)N(C)C
T/C [2]: 128 % of control

CNCCc1ccccc1
survivor count (dose: 166.0 mg/kg/injection, schedule: Q01DX007 (ip), vehicle: saline): 2 of 6
survivor count [6]: 0 of 6
survivor count (dose: 375.0 mg/kg/injection, schedule: Q01DX007 (ip), vehicle: saline): 0 of 6

C[C@]12CC[C@H](O)C[C@@H]1CC[C@@H]1[C@@H]2C(=O)C[C@]2(C)C3=CC(=O)O[C@H]3C[C@@H]12
T/C (dose: 20.0 mg/kg/injection, schedule: Q01DX007 (sc), vehicle: steroid suspending solution): 127 % of control
